Results deposited as PubChem BioAssay AID1224826 (NIAID, 2016).
Screen: 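Genes that change LPS-induced Tnf promoter activity in mouse macrophages when knocked down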 (primary screen). System: RAW264.7 G9 macrophages from mouse bearing reporters for p65 (GFP) and the Tnf promoter (mCherry). Reagents: siRNA pool against mouse genes, 100 nM. Timing: 16 h of LPS stimulation, after 2 days of siRNA transfection. Conditions: bacterial lipopolysaccharide (Salmonella minnesota R595), 10 ng/ml. Detection: 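Nuclear mCherry signal of the Tnf promoter reporter measured by imaging after background removal, scaled to each plate median and turned into robust z-scores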. Reading the numbers: Tnf reporter robust z-score: higher = stronger Tnf promoter reporter signal after LPS; Tnf reporter intensity: higher = stronger Tnf promoter reporter signal. Rule for the call: 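a well counts as active at a score of -1.3 or below (Tlr4 knock-down control median) or above 3 (raised signal); controls and wells holding fewer than 50 cells are excluded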. Meaning of the calls: active = Tnf reporter clearly lowered or raised; inactive = no clear change in Tnf reporter.
Here is an unselected part of about 17,000 reagents tested. About 1,110 of all reagents (6.6%) were called active. 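Active means lowered or raised reporter signal; replicate intensities are raw and not normalised per plate.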 The numbers tell different reagents against one gene apart.

The first 6 entries, to show the layout:
Tnf reporter robust z-score | fewer than 50 cells in well | Tnf reporter intensity, replicate 1 | Tnf reporter intensity, replicate 2 | call | gene | reagent
1 | enough cells in well | 378 | 253 | inactive | Me1 | 1
– | fewer than 50 cells per well; well left out of calls | 90.2 | 256 | inactive | Gpr3 | 1
0.33 | enough cells in well | 290 | 231 | inactive | Msra | 1
0.16 | enough cells in well | 197 | 122 | inactive | Or11l3 | 1
0.85 | enough cells in well | 370 | 282 | inactive | Rax | 1
0.52 | enough cells in well | 165 | 237 | inactive | Anapc11 | 1

The list itself, from the start:
Tnf reporter robust z-score | fewer than 50 cells in well | Tnf reporter intensity, replicate 1 | Tnf reporter intensity, replicate 2 | call | gene | reagent
1 | enough cells in well | 378 | 253 | inactive | Me1 | 1
– | fewer than 50 cells per well; well left out of calls | 90.2 | 256 | inactive | Gpr3 | 1
0.33 | enough cells in well | 290 | 231 | inactive | Msra | 1
0.16 | enough cells in well | 197 | 122 | inactive | Or11l3 | 1
0.85 | enough cells in well | 370 | 282 | inactive | Rax | 1
0.52 | enough cells in well | 165 | 237 | inactive | Anapc11 | 1
-0.59 | enough cells in well | 203 | 190 | inactive | Fhit | 1
0.02 | enough cells in well | 206 | 177 | inactive | Kcnc4 | 1
-0.83 | enough cells in well | 196 | 45.7 | inactive | Atxn7l2 | 1
-0.56 | enough cells in well | 179 | 147 | inactive | H2-Q8 | 1
0.34 | enough cells in well | 282 | 194 | inactive | Nop53 | 1
-0.07 | enough cells in well | 242 | 133 | inactive | Gcc1 | 1
-0.85 | enough cells in well | 129 | 109 | inactive | Hdhd5 | 1
0.55 | enough cells in well | 275 | 269 | inactive | Zfp148 | 1
-0.3 | enough cells in well | 239 | 146 | inactive | Cdin1 | 1
-0.69 | enough cells in well | 196 | 153 | inactive | Ccnj | 1
-0.77 | enough cells in well | 89 | 60.5 | inactive | Vmn1r205 | 1
1.35 | enough cells in well | 255 | 196 | inactive | Msi2 | 1
-0.69 | enough cells in well | 227 | 107 | inactive | Nop2 | 1
-0.11 | enough cells in well | 191 | 153 | inactive | Prkag1 | 1
-0.56 | enough cells in well | 103 | 104 | inactive | Scrn1 | 1
3.78 | enough cells in well | 493 | 188 | active | Ttc29 | 1
1.75 | enough cells in well | 193 | 138 | inactive | Trim42 | 1
0.53 | enough cells in well | 344 | 255 | inactive | Rrm2b | 1
0.57 | enough cells in well | 258 | 292 | inactive | Extl2 | 1
– | fewer than 50 cells per well; well left out of calls | 207 | 85.6 | inactive | Rasgrp1 | 1
-0.3 | enough cells in well | 160 | 143 | inactive | Aqp1 | 1
0.39 | enough cells in well | 142 | 160 | inactive | Lrrc75a | 1
1.52 | enough cells in well | 248 | 244 | inactive | Plekha7 | 1
0.56 | enough cells in well | 319 | 206 | inactive | Ppm1g | 1
0.14 | enough cells in well | 182 | 70.6 | inactive | Rilpl1 | 1
0.51 | enough cells in well | 257 | 193 | inactive | Kifc3 | 1
1.47 | enough cells in well | 284 | 105 | inactive | Pklr | 1
– | fewer than 50 cells per well; well left out of calls | 134 | 116 | inactive | Usp31 | 1
1.26 | enough cells in well | 315 | 247 | inactive | Ano10 | 1
– | fewer than 50 cells per well; well left out of calls | 88.6 | 67.5 | inactive | Ush1g | 1
-0.58 | enough cells in well | 229 | 49.9 | inactive | Cwc15 | 1
– | fewer than 50 cells per well; well left out of calls | 167 | 65.1 | inactive | Tmem88 | 1
0.26 | enough cells in well | 255 | 244 | inactive | Unc5b | 1
– | fewer than 50 cells per well; well left out of calls | 111 | 111 | inactive | Or52m1 | 1
-0.63 | enough cells in well | 127 | 127 | inactive | Pstpip2 | 1
-0.22 | enough cells in well | 219 | 186 | inactive | Pstpip2 | 2
-1.11 | enough cells in well | 135 | 72.2 | inactive | Kcnmb2 | 1
0.39 | enough cells in well | 332 | 244 | inactive | Rab27a | 1
-0.96 | enough cells in well | 172 | 61.6 | inactive | Mrps17 | 1
-0.51 | enough cells in well | 237 | 141 | inactive | Chrnd | 1
0.15 | enough cells in well | 139 | 176 | inactive | Tgfbr1 | 1
-0.69 | enough cells in well | 158 | 114 | inactive | Alk | 1
0.92 | enough cells in well | 297 | 210 | inactive | Il9r | 1
1.25 | enough cells in well | 240 | 233 | inactive | P3h3 | 1
3.35 | enough cells in well | 249 | 179 | active | Sptbn1 | 1
0.91 | enough cells in well | 222 | 216 | inactive | Nkd2 | 1
0.83 | enough cells in well | 216 | 199 | inactive | Zfp677 | 1
0.17 | enough cells in well | 240 | 246 | inactive | Epas1 | 1
1.03 | enough cells in well | 224 | 200 | inactive | Abhd5 | 1
2.2 | enough cells in well | 327 | 199 | inactive | Dmbt1 | 1
-0.55 | enough cells in well | 211 | 189 | inactive | Smad9 | 1
-0.5 | enough cells in well | 158 | 93.4 | inactive | Dpysl5 | 1
